Earlier results as cited in patent US10307371B2 (AI Therapeutics, Inc., priority 2014, dated 2019).

Details: benzyl alcohol, chloroform, acetone, and acetonitrile; cited from earlier work

CO[C@H]1C[C@@H]2CC[C@@H](C)[C@@](O)(O2)C(=O)C(=O)N2CCCC[C@H]2C(=O)O[C@H]([C@H](C)C[C@@H]2CC[C@@H](O)[C@H](OC)C2)CC(=O)[C@H](C)/C=C(\C)[C@@H](O)[C@@H](OC)C(=O)[C@H](C)C[C@H](C)/C=C/C=C/C=C/1C [Rapamycin, (3S,6R,7E,9R,10R,12R,14S,15E,17E,19E,21S,23S,26R,27R,34aS)-9,10,12,13, -14,21,22,23,24,25,26,27,32,33,34,34a-hexadecahydro-9,27-dihydroxy-3-[(1R)-2-[(1S,3R,4R)-4-hydroxy-3-methoxycyclohexyl]-1-methylethyl]-10,21-dimethox-y-6,8,12,14,20,26-hexamethyl-23,27-epoxy-3H-pyrido[2,1-c][1,4]oxaazacyclohentriacontine-1,5,11,28,29(4H,6H,31H)-pentone]
Solubility in organic solvents: freely soluble
